In article PMC7685970:
These are yes or no findings as the source states them, for the method shown. Binding seen in cells or lysates may run through a third protein. Binding can be weak; no strength is given.

Target: T1, Shwachman–Bodian–Diamond syndrome (SBDS) protein (mouse (endogenous in FDC.P1)) (UniProt P70122)
T1 sequence: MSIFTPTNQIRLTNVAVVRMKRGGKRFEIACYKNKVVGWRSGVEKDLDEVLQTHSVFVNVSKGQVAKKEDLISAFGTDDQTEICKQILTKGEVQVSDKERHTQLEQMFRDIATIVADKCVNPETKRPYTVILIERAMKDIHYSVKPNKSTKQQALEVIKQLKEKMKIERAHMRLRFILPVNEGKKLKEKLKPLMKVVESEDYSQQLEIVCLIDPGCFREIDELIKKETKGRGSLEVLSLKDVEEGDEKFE
Test: co-IP; immunoprecipitation with SBDS antibody from c-KIT/D816V cells, Western blot

Substance: PP2A structural subunit (PP2A-A) (mouse (endogenous in FDC.P1))
- binding: binds
